# The list shows a part of the results.
# Amino acid sequences for entries named in this document (tags omitted). A change or cut given only in a name is not applied to a line headed by its entry.
# UniProt Q9H1X3: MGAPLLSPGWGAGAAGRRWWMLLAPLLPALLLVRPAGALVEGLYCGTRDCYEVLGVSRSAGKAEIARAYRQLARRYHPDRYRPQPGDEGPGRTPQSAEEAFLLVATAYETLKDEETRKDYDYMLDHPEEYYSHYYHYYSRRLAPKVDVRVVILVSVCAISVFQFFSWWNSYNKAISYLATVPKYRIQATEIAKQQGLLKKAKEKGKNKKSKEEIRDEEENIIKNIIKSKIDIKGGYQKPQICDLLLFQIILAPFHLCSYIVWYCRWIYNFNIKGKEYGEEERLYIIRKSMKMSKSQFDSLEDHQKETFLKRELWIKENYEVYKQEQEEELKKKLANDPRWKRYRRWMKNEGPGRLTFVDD
# UniProt O00429, whole entry: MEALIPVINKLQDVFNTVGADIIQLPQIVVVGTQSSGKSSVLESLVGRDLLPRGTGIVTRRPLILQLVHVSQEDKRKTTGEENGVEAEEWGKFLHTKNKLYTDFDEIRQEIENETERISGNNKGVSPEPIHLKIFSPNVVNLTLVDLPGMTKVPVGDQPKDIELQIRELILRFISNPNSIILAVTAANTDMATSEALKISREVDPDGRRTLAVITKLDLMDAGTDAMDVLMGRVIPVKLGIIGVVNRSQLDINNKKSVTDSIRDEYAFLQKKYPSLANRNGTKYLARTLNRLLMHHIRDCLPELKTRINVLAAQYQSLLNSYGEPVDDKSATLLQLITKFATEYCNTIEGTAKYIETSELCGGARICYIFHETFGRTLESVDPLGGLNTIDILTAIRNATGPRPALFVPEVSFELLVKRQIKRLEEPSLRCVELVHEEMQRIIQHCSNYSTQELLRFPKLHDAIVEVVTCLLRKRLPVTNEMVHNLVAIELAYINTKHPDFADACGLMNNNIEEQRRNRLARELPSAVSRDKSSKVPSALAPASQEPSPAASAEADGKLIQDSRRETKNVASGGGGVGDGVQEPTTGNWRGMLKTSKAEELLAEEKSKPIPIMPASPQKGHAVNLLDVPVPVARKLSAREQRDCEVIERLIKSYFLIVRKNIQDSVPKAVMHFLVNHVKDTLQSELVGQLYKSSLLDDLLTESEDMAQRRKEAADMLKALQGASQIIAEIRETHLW
# UniProt P60842, whole entry: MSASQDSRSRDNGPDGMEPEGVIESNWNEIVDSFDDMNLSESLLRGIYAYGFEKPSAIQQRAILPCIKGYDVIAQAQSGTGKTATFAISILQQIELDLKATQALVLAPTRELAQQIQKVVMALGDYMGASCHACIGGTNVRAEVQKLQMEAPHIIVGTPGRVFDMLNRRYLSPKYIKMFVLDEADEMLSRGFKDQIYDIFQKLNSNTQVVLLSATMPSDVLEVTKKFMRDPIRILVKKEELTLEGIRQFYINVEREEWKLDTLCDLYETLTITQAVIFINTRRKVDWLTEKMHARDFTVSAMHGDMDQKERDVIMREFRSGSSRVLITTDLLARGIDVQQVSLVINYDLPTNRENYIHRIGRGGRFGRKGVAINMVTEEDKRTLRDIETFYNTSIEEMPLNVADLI
# UniProt Q5JPH6: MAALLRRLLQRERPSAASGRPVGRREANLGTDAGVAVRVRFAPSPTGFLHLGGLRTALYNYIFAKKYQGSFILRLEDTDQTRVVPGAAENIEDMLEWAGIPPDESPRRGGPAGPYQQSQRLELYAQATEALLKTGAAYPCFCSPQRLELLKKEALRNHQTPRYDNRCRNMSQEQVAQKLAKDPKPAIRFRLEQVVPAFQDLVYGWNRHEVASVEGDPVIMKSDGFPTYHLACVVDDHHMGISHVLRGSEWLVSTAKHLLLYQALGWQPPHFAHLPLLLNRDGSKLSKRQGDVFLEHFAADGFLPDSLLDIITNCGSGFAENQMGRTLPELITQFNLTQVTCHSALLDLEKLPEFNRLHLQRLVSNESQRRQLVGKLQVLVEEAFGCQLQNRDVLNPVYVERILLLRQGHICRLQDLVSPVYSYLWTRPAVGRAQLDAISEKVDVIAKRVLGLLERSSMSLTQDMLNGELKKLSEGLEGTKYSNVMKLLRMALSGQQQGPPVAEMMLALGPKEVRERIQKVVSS
# UniProt Q14232, whole entry: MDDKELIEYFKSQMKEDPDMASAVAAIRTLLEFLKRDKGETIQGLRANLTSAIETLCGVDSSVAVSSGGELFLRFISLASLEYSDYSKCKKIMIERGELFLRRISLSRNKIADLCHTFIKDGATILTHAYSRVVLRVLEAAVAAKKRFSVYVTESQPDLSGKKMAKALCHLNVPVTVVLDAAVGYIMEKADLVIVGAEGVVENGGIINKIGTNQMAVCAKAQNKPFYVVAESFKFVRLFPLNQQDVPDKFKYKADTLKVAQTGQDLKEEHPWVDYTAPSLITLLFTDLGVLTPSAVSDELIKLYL
# UniProt Q9Y485, whole entry: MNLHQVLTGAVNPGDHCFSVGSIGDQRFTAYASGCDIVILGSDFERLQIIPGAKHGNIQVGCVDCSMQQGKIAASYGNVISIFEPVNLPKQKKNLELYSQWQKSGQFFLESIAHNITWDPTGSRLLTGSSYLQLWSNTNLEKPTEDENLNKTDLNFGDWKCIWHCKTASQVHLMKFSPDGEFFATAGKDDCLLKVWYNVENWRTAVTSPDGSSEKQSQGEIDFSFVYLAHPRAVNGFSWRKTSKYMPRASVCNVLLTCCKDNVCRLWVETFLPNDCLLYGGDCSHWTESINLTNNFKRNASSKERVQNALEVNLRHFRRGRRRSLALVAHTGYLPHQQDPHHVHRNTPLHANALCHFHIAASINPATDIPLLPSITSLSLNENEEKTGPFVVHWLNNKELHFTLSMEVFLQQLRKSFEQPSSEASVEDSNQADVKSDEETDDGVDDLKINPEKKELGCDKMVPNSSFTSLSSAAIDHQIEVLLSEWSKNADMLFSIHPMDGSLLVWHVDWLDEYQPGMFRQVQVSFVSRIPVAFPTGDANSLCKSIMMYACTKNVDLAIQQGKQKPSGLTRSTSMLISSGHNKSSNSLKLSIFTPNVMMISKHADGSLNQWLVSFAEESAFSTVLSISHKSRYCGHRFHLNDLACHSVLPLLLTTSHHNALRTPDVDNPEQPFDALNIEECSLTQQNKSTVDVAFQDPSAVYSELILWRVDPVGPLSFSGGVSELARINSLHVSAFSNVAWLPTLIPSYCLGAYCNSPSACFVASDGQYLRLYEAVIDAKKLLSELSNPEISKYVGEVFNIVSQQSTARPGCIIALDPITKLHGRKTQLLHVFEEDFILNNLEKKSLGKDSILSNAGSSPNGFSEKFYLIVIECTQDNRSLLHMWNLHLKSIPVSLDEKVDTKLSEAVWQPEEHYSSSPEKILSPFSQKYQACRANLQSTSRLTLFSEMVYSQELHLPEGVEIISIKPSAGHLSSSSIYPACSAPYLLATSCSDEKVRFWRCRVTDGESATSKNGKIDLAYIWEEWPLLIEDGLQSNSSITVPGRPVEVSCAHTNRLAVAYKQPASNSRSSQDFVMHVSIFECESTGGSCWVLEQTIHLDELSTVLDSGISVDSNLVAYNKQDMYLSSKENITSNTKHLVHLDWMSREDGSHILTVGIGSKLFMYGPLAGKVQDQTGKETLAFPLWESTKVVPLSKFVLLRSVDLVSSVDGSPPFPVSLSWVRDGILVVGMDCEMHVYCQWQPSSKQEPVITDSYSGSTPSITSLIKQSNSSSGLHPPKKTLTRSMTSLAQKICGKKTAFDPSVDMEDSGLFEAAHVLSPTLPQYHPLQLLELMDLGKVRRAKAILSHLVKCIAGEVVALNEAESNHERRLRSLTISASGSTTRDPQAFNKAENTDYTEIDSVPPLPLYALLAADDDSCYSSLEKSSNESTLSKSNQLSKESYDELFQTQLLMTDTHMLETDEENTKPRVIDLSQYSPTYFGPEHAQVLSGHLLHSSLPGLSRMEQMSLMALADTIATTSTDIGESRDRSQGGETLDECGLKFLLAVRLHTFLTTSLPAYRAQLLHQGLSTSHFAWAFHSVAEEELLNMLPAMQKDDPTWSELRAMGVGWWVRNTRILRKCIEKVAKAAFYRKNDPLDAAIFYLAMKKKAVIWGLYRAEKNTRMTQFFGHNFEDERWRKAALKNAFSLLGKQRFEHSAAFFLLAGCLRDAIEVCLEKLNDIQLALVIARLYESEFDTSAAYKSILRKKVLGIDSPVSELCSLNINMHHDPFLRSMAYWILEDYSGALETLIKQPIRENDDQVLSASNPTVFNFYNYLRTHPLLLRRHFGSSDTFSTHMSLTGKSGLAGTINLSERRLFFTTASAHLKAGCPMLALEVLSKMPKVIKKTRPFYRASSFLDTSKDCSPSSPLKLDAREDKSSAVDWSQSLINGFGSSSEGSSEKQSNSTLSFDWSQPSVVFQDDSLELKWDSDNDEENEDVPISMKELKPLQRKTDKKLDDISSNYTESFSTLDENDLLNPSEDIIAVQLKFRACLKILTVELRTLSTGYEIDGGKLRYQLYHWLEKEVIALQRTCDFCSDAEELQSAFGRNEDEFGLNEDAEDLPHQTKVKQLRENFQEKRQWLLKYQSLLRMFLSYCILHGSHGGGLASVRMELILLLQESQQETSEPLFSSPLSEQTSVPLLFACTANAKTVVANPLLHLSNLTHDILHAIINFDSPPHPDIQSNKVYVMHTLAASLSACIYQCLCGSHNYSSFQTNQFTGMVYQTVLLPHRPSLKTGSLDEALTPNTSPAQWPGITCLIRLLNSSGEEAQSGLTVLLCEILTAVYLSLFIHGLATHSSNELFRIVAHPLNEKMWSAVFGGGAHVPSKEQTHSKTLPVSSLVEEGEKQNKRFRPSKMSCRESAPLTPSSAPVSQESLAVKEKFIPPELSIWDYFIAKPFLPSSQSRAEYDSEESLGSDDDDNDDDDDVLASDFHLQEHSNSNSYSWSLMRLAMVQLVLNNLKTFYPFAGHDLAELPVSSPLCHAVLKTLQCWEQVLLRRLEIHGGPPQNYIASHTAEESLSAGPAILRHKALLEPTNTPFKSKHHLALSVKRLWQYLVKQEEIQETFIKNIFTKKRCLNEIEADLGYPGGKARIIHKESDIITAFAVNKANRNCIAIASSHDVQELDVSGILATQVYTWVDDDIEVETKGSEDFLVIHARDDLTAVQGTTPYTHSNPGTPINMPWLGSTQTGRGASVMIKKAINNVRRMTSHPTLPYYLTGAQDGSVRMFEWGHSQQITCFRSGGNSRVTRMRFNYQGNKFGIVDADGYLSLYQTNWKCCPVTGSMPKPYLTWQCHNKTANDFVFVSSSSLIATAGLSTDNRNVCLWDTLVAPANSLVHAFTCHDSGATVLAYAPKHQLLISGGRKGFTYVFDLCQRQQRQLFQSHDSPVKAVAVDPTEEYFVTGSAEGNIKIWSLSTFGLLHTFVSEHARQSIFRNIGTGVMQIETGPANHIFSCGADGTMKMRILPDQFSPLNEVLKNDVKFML
# UniProt P05198, whole entry: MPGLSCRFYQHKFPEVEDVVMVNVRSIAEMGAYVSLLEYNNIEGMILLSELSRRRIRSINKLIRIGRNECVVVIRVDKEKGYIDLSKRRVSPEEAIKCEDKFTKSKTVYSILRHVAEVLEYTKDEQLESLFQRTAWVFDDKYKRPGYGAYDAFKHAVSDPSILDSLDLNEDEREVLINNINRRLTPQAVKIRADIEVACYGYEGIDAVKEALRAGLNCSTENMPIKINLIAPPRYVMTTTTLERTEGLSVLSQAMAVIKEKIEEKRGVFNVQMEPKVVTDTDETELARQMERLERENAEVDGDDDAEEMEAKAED
# Compound: COc1ccc(Cn2ccc3ccc(C(=O)NO)cc32)cc1
# Test: dose-dependent thermal stabilisation call (2D-TPP, DLPTP, 10% FDR) (binary (1 = stabilised)); higher = stabilised by the compound
# Conditions: system: HL-60 intact cells; concentration range 0.04-10 µM
row,Target,dose-dependent thermal stabilisation call
1,DNAJB14 (UniProt Q8TBM8),inactive: 0
2,DNAJB2 (UniProt P25686),inactive: 0
3,DRG1 (UniProt Q9Y295),inactive: 0
4,DNAJC25 (UniProt Q9H1X3),inactive: 0
5,ECHS1 (UniProt P30084),inactive: 0
6,DNMT3A (UniProt Q9Y6K1),inactive: 0
7,ENTPD5 (UniProt O75356),inactive: 0
8,ERP29 (UniProt P30040),inactive: 0
9,EIF4H (UniProt Q15056),inactive: 0
10,DNAJC16 (UniProt Q9Y2G8),inactive: 0
11,ENDOG (UniProt Q14249),inactive: 0
12,ERMP1 (UniProt Q7Z2K6),inactive: 0
13,ESD (UniProt P10768),inactive: 0
14,EEF1D (UniProt P29692),inactive: 0
15,DNM1L (UniProt O00429),inactive: 0
16,EPC2 (UniProt Q52LR7),inactive: 0
17,ERCC3 (UniProt P19447),inactive: 0
18,DIS3L2 (UniProt Q8IYB7),inactive: 0
19,DNAJA3 (UniProt Q96EY1),inactive: 0

row,Target,dose-dependent thermal stabilisation call
1,EIF3D (UniProt O15371),inactive: 0
2,DOCK6 (UniProt Q96HP0),inactive: 0
3,EIF4A1 (UniProt P60842),inactive: 0
4,ENTPD4 (UniProt Q9Y227),inactive: 0
5,EARS2 (UniProt Q5JPH6),inactive: 0
6,EIF2B4 (UniProt Q9UI10),inactive: 0
7,EFHA1 (UniProt Q8IYU8),inactive: 0
8,ERGIC2 (UniProt Q96RQ1),inactive: 0
9,EIF2B1 (UniProt Q14232),inactive: 0
10,DYNC1H1 (UniProt Q14204),inactive: 0
11,EGLN1 (UniProt Q9GZT9),inactive: 0
12,ELOVL5 (UniProt Q9NYP7),inactive: 0
13,ERCC6L (UniProt Q2NKX8),inactive: 0
14,DMXL1 (UniProt Q9Y485),inactive: 0
15,DNTTIP1 (UniProt Q9H147),inactive: 0
16,EHMT1 (UniProt Q9H9B1),inactive: 0
17,DR1 (UniProt Q01658),inactive: 0
18,EFNB2 (UniProt P52799),inactive: 0
19,EIF2S1 (UniProt P05198),inactive: 0

# Reformatted: entries from further up.
row | Target | dose-dependent thermal stabilisation call
5 | EARS2 (UniProt Q5JPH6) | inactive: 0
6 | EIF2B4 (UniProt Q9UI10) | inactive: 0

# — the supplement of paper PMC7666118
